The values below come from patent publication US20150276743A1.

The chains behind the UniProt entries cited, without tags or fusion partners. Residues count along the entry.
UniProt P16144, residues 28-1822: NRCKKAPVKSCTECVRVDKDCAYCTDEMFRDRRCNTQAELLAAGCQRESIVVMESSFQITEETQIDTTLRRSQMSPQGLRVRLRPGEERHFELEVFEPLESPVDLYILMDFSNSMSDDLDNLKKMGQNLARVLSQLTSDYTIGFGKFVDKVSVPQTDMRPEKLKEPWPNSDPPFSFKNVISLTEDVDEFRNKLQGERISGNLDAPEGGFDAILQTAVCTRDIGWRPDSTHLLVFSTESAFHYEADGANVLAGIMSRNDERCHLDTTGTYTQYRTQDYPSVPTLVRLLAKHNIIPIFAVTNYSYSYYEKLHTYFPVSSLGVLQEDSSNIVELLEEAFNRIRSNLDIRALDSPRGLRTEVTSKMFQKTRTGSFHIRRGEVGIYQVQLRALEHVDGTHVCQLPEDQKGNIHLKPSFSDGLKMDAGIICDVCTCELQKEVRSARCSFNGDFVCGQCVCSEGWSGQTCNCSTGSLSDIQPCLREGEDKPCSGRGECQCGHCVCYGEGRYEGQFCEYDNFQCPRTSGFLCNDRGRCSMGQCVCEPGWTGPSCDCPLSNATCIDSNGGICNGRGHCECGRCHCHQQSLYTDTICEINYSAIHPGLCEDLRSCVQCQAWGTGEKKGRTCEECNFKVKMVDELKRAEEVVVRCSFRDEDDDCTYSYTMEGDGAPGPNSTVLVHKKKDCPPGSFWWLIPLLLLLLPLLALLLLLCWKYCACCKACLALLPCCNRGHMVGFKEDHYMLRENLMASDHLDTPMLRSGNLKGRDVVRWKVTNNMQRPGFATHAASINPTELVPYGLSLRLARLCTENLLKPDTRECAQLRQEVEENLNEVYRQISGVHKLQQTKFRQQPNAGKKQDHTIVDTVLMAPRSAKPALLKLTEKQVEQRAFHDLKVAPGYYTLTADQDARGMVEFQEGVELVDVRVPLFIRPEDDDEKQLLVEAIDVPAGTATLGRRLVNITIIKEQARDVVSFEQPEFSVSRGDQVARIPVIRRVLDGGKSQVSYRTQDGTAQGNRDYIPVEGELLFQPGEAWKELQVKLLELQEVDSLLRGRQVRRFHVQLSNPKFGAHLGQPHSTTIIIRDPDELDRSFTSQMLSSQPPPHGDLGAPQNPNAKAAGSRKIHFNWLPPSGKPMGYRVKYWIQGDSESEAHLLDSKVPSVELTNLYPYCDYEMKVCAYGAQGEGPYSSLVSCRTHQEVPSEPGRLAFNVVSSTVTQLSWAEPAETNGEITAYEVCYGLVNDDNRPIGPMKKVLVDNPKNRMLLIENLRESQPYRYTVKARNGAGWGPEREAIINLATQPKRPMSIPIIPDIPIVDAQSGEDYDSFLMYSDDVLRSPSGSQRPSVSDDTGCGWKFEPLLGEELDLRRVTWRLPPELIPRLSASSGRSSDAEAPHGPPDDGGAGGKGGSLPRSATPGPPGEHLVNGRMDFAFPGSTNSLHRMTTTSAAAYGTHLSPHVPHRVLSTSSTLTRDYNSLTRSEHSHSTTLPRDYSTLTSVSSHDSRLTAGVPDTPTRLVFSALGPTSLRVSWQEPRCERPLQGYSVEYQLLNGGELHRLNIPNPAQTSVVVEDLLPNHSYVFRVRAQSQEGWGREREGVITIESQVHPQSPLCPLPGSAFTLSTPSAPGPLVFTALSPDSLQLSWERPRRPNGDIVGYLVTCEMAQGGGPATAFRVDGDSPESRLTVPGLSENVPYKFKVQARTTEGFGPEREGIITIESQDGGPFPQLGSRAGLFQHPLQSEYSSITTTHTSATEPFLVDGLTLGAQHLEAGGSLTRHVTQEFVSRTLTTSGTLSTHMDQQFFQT

No constants are given. Whether binding was seen depends on the method and setting. In cells and extracts the contact can be indirect. Some entries that bind do so weakly or less than the wild type.

For this assay, the target named is integrin β4 subunit (human) (UniProt P16144). The assay can be described thus: co-immunoprecipitation with G0H3 from 35S-labelled Caco-2/15 cells and keratinocytes, SDS-PAGE.

B1: integrin α6 subunit (endogenous, Caco-2/15 cells and keratinocytes) (receptor, human, UniProt P23229-2 24-1073, looked up)
chain: FNLDTREDNVIRKYGDPGSLFGFSLAMHWQLQPEDKRLLLVGAPRAEALPLQRANRTGGLYSCDITARGPCTRIEFDNDADPTSESKEDQWMGVTVQSQGPGGKVVTCAHRYEKRQHVNTKQESRDIFGRCYVLSQNLRIEDDMDGGDWSFCDGRLRGHEKFGSCQQGVAATFTKDFHYIVFGAPGTYNWKGIVRVEQKNNTFFDMNIFEDGPYEVGGETEHDESLVPVPANSYLGFSLDSGKGIVSKDEITFVSGAPRANHSGAVVLLKRDMKSAHLLPEHIFDGEGLASSFGYDVAVVDLNKDGWQDIVIGAPQYFDRDGEVGGAVYVYMNQQGRWNNVKPIRLNGTKDSMFGIAVKNIGDINQDGYPDIAVGAPYDDLGKVFIYHGSANGINTKPTQVLKGISPYFGYSIAGNMDLDRNSYPDVAVGSLSDSVTIFRSRPVINIQKTITVTPNRIDLRQKTACGAPSGICLQVKSCFEYTANPAGYNPSISIVGTLEAEKERRKSGLSSRVQFRNQGSEPKYTQELTLKRQKQKVCMEETLWLQDNIRDKLRPIPITASVEIQEPSSRRRVNSLPEVLPILNSDEPKTAHIDVHFLKEGCGDDNVCNSNLKLEYKFCTREGNQDKFSYLPIQKGVPELVLKDQKDIALEITVTNSPSNPRNPTKDGDDAHEAKLIATFPDTLTYSAYRELRAFPEKQLSCVANQNGSQADCELGNPFKRNSNVTFYLVLSTTEVTFDTPDLDINLKLETTSNQDNLAPITAKAKVVIELLLSVSGVAKPSQVYFGGTVVGEQAMKSEDEVGSLIEYEFRVINLGKPLTNLGTATLNIQWPKEISNGKWLLYLVKVESKGLEKVTCEPQKEINSLNLTESHNSRKKREITEKQIDDNRKFSLFAERKYQTLNCSVNVNCVNIRCPLRGLDSKASLILRSRLWNSTFLEEYSKLNYLDILMRAFIDVTAAAENIRLPNAGTQVRVTVFPSKTVAQYSGVPWWIILVAILAGILMLALLVFILWKCGFFKRNKKDHYDATYHKAEIHAQPSDKERLTSDA
Turning to B1, the binding result is given as “binds”.
